Experimental data published in PMC12052760.
These are yes or no findings as the source states them, for the method shown. Binding seen in cells or lysates may run through a third protein. Some entries that bind do so weakly or less than the wild type.

The chains behind the UniProt entries cited, without tags or fusion partners.
UniProt Q8IUC6: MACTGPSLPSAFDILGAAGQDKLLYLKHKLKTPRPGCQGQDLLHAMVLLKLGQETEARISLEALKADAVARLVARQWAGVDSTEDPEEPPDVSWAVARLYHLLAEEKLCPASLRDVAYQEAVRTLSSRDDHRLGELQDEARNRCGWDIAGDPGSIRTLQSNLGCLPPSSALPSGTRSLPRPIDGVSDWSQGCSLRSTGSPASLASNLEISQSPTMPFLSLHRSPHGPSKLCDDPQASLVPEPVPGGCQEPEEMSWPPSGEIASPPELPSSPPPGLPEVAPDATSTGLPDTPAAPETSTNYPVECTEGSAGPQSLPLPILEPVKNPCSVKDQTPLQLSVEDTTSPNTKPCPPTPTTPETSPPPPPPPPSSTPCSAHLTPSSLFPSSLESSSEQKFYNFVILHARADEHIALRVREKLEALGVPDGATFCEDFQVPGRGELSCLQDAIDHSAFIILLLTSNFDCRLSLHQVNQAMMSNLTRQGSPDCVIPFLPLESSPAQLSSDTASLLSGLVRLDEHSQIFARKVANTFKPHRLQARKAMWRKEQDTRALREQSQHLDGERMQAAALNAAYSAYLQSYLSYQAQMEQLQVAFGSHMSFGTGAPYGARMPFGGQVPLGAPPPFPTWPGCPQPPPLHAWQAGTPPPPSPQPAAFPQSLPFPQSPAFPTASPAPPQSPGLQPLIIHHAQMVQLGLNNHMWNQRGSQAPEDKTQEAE
UniProt Q7Z434: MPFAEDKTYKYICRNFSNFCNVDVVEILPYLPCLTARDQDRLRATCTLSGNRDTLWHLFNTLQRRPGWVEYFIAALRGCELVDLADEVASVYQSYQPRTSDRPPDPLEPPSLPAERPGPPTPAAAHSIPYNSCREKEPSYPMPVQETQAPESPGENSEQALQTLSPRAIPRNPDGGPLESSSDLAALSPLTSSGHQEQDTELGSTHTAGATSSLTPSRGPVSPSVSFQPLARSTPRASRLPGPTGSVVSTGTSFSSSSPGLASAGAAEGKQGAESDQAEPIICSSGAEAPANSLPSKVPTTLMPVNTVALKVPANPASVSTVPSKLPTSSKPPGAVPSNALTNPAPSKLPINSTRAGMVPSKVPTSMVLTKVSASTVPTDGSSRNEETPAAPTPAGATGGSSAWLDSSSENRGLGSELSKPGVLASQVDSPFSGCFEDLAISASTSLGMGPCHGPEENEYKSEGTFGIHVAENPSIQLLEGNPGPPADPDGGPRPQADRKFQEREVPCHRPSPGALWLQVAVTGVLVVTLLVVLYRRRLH
UniProt Q86WV6: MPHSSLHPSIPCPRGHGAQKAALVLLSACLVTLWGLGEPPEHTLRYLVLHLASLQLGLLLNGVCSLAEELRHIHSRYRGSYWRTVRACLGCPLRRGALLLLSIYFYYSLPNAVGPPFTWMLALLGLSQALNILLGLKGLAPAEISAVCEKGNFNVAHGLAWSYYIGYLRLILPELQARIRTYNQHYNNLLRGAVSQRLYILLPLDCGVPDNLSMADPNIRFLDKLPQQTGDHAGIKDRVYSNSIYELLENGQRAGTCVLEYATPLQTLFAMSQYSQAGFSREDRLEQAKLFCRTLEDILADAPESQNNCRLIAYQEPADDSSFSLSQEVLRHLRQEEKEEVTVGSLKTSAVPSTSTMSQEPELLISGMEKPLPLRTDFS

What was measured:
Experiment in all cases: co-IP
IKKϵ = molecular target: T1, IKKϵ (UniProt Q14164)
T1 sequence: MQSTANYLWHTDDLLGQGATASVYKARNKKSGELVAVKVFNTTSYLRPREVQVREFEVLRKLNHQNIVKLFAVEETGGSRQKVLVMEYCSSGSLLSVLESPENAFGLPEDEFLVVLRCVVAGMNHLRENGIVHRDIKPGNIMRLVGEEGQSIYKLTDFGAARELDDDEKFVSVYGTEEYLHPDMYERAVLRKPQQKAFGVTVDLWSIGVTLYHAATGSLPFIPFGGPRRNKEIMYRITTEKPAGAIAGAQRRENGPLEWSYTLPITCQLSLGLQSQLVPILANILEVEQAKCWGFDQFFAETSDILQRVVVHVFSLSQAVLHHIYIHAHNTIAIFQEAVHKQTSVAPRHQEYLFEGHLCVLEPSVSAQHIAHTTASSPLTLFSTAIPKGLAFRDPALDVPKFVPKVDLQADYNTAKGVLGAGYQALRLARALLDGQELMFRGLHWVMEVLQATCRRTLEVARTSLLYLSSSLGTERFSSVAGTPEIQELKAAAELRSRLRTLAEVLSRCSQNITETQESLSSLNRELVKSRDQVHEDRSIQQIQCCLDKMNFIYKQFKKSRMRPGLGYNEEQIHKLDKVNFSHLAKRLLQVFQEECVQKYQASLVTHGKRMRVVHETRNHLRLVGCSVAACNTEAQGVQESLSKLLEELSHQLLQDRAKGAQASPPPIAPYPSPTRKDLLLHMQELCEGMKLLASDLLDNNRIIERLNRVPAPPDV

MDA5 = molecular target: T2, MDA5 (UniProt Q9BYX4)
T2 sequence: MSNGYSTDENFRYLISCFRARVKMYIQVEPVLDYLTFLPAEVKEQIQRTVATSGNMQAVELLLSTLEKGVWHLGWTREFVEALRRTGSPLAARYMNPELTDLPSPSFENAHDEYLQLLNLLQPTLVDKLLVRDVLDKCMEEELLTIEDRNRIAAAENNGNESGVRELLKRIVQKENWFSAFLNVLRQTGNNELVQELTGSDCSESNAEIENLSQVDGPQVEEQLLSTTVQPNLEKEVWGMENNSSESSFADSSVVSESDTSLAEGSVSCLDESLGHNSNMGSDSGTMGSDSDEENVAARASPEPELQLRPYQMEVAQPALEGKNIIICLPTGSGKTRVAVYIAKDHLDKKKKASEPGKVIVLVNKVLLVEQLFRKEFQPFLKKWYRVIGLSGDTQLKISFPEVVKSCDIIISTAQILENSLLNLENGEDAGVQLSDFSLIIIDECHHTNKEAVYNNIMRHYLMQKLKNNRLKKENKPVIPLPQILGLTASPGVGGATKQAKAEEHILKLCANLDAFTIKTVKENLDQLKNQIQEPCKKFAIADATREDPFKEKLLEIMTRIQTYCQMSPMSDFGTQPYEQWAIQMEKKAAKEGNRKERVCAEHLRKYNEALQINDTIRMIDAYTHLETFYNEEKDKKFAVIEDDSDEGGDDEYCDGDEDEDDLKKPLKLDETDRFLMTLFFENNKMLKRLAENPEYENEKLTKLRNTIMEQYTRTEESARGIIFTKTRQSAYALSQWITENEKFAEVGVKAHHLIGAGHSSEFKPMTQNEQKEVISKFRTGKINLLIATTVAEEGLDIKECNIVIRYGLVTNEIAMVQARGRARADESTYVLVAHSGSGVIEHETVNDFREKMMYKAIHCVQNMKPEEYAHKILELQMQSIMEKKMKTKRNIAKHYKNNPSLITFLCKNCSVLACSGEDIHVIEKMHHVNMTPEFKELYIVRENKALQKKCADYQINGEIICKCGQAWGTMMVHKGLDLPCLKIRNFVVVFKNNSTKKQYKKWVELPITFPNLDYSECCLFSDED

RIG-I = molecular target: T3, RIG-I (UniProt O95786)
T3 sequence: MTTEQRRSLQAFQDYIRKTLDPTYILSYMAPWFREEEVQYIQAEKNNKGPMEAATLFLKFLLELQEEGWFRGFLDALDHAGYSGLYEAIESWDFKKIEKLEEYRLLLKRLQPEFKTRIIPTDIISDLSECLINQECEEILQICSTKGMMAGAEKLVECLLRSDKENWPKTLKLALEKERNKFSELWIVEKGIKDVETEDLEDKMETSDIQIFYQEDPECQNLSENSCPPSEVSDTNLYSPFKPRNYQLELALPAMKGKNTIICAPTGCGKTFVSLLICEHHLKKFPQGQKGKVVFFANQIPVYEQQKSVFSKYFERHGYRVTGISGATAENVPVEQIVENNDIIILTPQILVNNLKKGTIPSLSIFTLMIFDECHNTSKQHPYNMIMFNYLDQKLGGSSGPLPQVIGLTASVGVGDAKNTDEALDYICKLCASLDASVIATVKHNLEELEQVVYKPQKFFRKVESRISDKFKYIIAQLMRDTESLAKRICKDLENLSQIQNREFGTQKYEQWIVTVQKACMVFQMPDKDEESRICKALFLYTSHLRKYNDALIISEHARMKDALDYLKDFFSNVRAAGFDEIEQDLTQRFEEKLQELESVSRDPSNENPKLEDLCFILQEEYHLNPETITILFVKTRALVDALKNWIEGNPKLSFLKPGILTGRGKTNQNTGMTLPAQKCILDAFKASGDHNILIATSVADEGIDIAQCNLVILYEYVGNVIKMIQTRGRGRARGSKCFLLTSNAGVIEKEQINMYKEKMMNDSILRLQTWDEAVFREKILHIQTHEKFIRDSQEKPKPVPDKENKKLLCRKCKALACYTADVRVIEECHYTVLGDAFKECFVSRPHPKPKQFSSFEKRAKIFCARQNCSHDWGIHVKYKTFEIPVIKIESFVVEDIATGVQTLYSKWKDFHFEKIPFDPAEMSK

STAT1 = STAT1 (UniProt P42224)
[1] = molecular target: T4, TANK-binding kinase 1 (TBK1) (UniProt Q9UHD2)
T4 sequence: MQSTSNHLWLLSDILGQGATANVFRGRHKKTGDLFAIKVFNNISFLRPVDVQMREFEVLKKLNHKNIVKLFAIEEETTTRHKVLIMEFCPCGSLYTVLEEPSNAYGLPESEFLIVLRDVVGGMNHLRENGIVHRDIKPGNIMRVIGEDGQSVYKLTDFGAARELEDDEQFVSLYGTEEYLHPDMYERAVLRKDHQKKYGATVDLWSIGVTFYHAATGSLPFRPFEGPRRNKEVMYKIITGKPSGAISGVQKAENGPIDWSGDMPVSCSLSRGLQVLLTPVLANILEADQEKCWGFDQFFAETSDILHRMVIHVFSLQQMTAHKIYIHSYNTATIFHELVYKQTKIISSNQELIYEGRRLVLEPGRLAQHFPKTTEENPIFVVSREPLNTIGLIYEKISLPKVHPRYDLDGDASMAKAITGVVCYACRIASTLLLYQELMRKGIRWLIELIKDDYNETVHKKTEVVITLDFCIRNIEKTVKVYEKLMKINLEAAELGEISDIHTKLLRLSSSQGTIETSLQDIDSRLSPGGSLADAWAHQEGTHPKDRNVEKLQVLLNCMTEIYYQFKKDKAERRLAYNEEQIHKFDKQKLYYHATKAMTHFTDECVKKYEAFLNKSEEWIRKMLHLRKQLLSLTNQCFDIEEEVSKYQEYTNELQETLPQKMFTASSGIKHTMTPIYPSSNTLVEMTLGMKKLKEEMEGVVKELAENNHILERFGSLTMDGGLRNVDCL

TRIF = TRIF (UniProt Q8IUC6)
[2] = molecular target: mitochondrial antiviral signaling protein (MAVS) (UniProt Q7Z434)
[3] = molecular target: stimulator of interferon genes (STING) (UniProt Q86WV6)
STAT1, P42224 = molecular target: T5, STAT1, P42224; settings: remark: other sources report otherwise
T5 chain: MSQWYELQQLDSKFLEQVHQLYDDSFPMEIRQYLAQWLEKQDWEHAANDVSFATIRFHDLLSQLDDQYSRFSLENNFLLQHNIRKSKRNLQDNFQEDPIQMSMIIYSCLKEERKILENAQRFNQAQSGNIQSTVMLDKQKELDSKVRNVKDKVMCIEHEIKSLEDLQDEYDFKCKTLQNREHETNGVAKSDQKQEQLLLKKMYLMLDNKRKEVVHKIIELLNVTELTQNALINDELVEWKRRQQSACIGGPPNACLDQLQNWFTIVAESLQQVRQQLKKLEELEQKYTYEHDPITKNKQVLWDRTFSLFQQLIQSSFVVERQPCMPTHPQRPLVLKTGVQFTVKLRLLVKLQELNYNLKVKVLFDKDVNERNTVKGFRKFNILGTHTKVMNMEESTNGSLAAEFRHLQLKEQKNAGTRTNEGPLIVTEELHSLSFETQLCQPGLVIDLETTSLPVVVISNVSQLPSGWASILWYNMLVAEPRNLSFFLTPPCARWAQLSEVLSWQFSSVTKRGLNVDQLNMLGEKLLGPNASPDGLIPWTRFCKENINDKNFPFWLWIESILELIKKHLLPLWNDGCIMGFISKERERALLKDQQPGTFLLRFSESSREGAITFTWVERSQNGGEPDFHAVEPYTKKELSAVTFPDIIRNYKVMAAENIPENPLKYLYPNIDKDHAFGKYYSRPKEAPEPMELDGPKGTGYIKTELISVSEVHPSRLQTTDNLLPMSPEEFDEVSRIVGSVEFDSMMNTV

STAT2, P52630 = settings: remark: other sources report otherwise

Measured: binding

B1: HPV11 E1 (protein, UniProt P04014 1-649)
chain: MADDSGTENEGSGCTGWFMVEAIVEHTTGTQISEDEEEEVEDSGYDMVDFIDDRHITQNSVEAQALFNRQEADAHYATVQDLKRKYLGSPYVSPISNVANAVESEISPRLDAIKLTTQPKKVKRRLFETRELTDSGYGYSEVEAATQVEKHGDPENGGDGQERDTGRDIEGEGVEHREAEAVDDSTREHADTSGILELLKCKDIRSTLHGKFKDCFGLSFVDLIRPFKSDRTTCADWVVAGFGIHHSIADAFQKLIEPLSLYAHIQWLTNAWGMVLLVLIRFKVNKSRCTVARTLGTLLNIPENHMLIEPPKIQSGVRALYWFRTGISNASTVIGEAPEWITRQTVIEHSLADSQFKLTEMVQWAYDNDICEESEIAFEYAQRGDFDSNARAFLNSNMQAKYVKDCAIMCRHYKHAEMKKMSIKQWIKYRGTKVDSVGNWKPIVQFLRHQNIEFIPFLSKLKLWLHGTPKKNCIAIVGPPDTGKSCFCMSLIKFLGGTVISYVNSCSHFWLQPLTDAKVALLDDATQPCWTYMDTYMRNLLDGNPMSIDRKHRALTLIKCPPLLVTSNIDISKEEKYKYLHSRVTTFTFPNPFPFDRNGNAVYELSDANWKCFFERLSSSLDIEDSEDEEDGSNSQAFRCVPGSVVRTL
not listed: STAT1, P42224 | STAT2, P52630
binds: all other assays above

B2: HPV16 E1 (protein, UniProt P03114 1-649)
chain: MADPAGTNGEEGTGCNGWFYVEAVVEKKTGDAISDDENENDSDTGEDLVDFIVNDNDYLTQAETETAHALFTAQEAKQHRDAVQVLKRKYLVSPLSDISGCVDNNISPRLKAICIEKQSRAAKRRLFESEDSGYGNTEVETQQMLQVEGRHETETPCSQYSGGSGGGCSQYSSGSGGEGVSERHTICQTPLTNILNVLKTSNAKAAMLAKFKELYGVSFSELVRPFKSNKSTCCDWCIAAFGLTPSIADSIKTLLQQYCLYLHIQSLACSWGMVVLLLVRYKCGKNRETIEKLLSKLLCVSPMCMMIEPPKLRSTAAALYWYKTGISNISEVYGDTPEWIQRQTVLQHSFNDCTFELSQMVQWAYDNDIVDDSEIAYKYAQLADTNSNASAFLKSNSQAKIVKDCATMCRHYKRAEKKQMSMSQWIKYRCDRVDDGGDWKQIVMFLRYQGVEFMSFLTALKRFLQGIPKKNCILLYGAANTGKSLFGMSLMKFLQGSVICFVNSKSHFWLQPLADAKIGMLDDATVPCWNYIDDNLRNALDGNLVSMDVKHRPLVQLKCPPLLITSNINAGTDSRWPYLHNRLVVFTFPNEFPFDENGNPVYELNDKNWKSFFSRTWSRLSLHEDEDKENDGDSLPTFKCVSGQNTNTL
not listed: STAT1, P42224 | STAT2, P52630
binds: all other assays above

B3: IRF9, Q00978 1-393 (protein)
chain: MASGRARCTRKLRNWVVEQVESGQFPGVCWDDTAKTMFRIPWKHAGKQDFREDQDAAFFKAWAIFKGKYKEGDTGGPAVWKTRLRCALNKSSEFKEVPERGRMDVAEPYKVYQLLPPGIVSGQPGTQKVPSKRQHSSVSSERKEEEDAMQNCTLSPSVLQDSLNNEEEGASGGAVHSDIGSSSSSSSPEPQEVTDTTEAPFQGDQRSLEFLLPPEPDYSLLLTFIYNGRVVGEAQVQSLDCRLVAEPSGSESSMEQVLFPKPGPLEPTQRLLSQLERGILVASNPRGLFVQRLCPIPISWNAPQAPPGPGPHLLPSNECVELFRTAYFCRDLVRYFQGLGPPPKFQVTLNFWEESHGSSHTPQNLITVKMEQAFARYLLEQTPEQQAAILSLV
binds: STAT1, P42224 | STAT2, P52630
